Values from PubChem BioAssay AID1224826 (NIAID, 2016).
The whole screen tested about 17,000 reagents; below is a random part of them. About 1,110 of them (6.6%) were called active. 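Active means lowered or raised reporter signal; replicate intensities are raw and not normalised per plate.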 Not all columns of the deposit are shown. Reagent sequences are not shown.

- Screen: 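Knock-downs that raise or lower Tnf reporter signal after endotoxin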 (primary screen)
- Cell system: RAW264.7 G9 macrophages from mouse bearing reporters for p65 (GFP) and the Tnf promoter (mCherry)
- Knock-down reagent: siRNA pool against mouse genes, 100 nM
- Timing: 16 h of LPS stimulation, after 2 days of siRNA transfection
- Treatment: bacterial lipopolysaccharide (Salmonella minnesota R595), 10 ng/ml
- Read-out: 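Nuclear mCherry signal of the Tnf promoter reporter measured by imaging after background removal, scaled to each plate median and turned into robust z-scores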
- Reading the numbers: Tnf reporter robust z-score: higher = stronger Tnf promoter reporter signal after LPS
- Rule for the call: 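Called active when robust z-score is at most -1.3, matching the median of the Tlr4 knock-down control, or over 3; control wells and wells with under 50 cells never active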
- Meaning of the calls: active = Tnf reporter clearly lowered or raised; inactive = no clear change in Tnf reporter

Against Dctpp1 (GeneID 66422) [SID315472435], the values are fewer than 50 cells in well fewer than 50 cells per well; well left out of calls; inactive.
Ccdc122 (GeneID 108811) [SID315476741] showed Tnf reporter robust z-score 0.41; fewer than 50 cells in well enough cells in well; inactive.
Olig1 (GeneID 50914) [SID315470881] showed fewer than 50 cells in well fewer than 50 cells per well; well left out of calls; inactive.
Against Wfdc15a (GeneID 68221) [SID315473460], the values are Tnf reporter robust z-score -1.42; fewer than 50 cells in well enough cells in well; active.
Rida (GeneID 15473) [SID315467302] showed Tnf reporter robust z-score -0.77; fewer than 50 cells in well enough cells in well; inactive.
Baiap2 (GeneID 108100) [SID315476692] showed Tnf reporter robust z-score -0.11; fewer than 50 cells in well enough cells in well; inactive.
Fbh1 (GeneID 50755) [SID315470824] scored Tnf reporter robust z-score 5.3; fewer than 50 cells in well enough cells in well; active.
Knock-down of Ythdf2 (GeneID 213541) [SID315477815] came out at: Tnf reporter robust z-score -1.57; fewer than 50 cells in well enough cells in well; active.
Depletion of Orai2 (GeneID 269717) [SID315480883] came out at: fewer than 50 cells in well fewer than 50 cells per well; well left out of calls; inactive.
Slc9a6 (GeneID 236794) [SID315479313] showed Tnf reporter robust z-score -0.8; fewer than 50 cells in well enough cells in well; inactive.
For Cep170 (GeneID 545389) [SID315481976], the values are Tnf reporter robust z-score 0.83; fewer than 50 cells in well enough cells in well; inactive.
Knock-down of Ang3 (GeneID 11730) [SID315465411] gave: Tnf reporter robust z-score -0.43; fewer than 50 cells in well enough cells in well; inactive.
Armc7 (GeneID 276905) [SID315480981] gave Tnf reporter robust z-score -0.03; fewer than 50 cells in well enough cells in well; inactive.
Or11h4b (GeneID 258264) [SID315479958] scored Tnf reporter robust z-score 0.88; fewer than 50 cells in well enough cells in well; inactive.
Against Tbc1d25 (GeneID 209815) [SID315477617], the values are Tnf reporter robust z-score -1.83; fewer than 50 cells in well enough cells in well; active.
Atxn7l1 (GeneID 380753) [SID315481755] gave Tnf reporter robust z-score 1; fewer than 50 cells in well enough cells in well; inactive.
For 1700120K04Rik (GeneID 68232) [SID315473466] the deposit lists Tnf reporter robust z-score -1.52; fewer than 50 cells in well enough cells in well; active.
Chmp4b (GeneID 75608) [SID315475160] showed fewer than 50 cells in well fewer than 50 cells per well; well left out of calls; inactive.
With knock-down of Mrgpra1 (GeneID 233221) [SID315479068], the screen gave Tnf reporter robust z-score 0.67; fewer than 50 cells in well enough cells in well; inactive.
Hspa14 (GeneID 50497) [SID315470799] scored Tnf reporter robust z-score -1.26; fewer than 50 cells in well enough cells in well; inactive.
After knock-down of Cbx3 (GeneID 12417) [SID315465804], the record shows Tnf reporter robust z-score 0.38; fewer than 50 cells in well enough cells in well; inactive.
After knock-down of Clcn3 (GeneID 12725) [SID315465987] the results were Tnf reporter robust z-score -0.72; fewer than 50 cells in well enough cells in well; inactive.
Tmem67 (GeneID 329795) [SID315481551] showed Tnf reporter robust z-score -0.24; fewer than 50 cells in well enough cells in well; inactive.
Myl2 (GeneID 17906) [SID315468069] showed Tnf reporter robust z-score -0.13; fewer than 50 cells in well enough cells in well; inactive.
After knock-down of Vmn1r38 (GeneID 171186) [SID315477275], the screen gave Tnf reporter robust z-score -0.6; fewer than 50 cells in well enough cells in well; inactive.
For Dzank1 (GeneID 241688) [SID315479583], the values are Tnf reporter robust z-score 2.49; fewer than 50 cells in well enough cells in well; inactive.
Against Bcdin3d (GeneID 75284) [SID315475095] the deposit lists Tnf reporter robust z-score 0.63; fewer than 50 cells in well enough cells in well; inactive.

Reprinted from above, 4 entries:
Slc9a6 (GeneID 236794) [SID315479313]: Tnf reporter robust z-score = -0.8; fewer than 50 cells in well = enough cells in well; outcome = inactive
Cep170 (GeneID 545389) [SID315481976]: Tnf reporter robust z-score = 0.83; fewer than 50 cells in well = enough cells in well; outcome = inactive
Ang3 (GeneID 11730) [SID315465411]: Tnf reporter robust z-score = -0.43; fewer than 50 cells in well = enough cells in well; outcome = inactive
Armc7 (GeneID 276905) [SID315480981]: Tnf reporter robust z-score = -0.03; fewer than 50 cells in well = enough cells in well; outcome = inactive
